Percent effect of library compounds

By UniProt entry, the sequences of proteins in these tests, tags left out. Residues count along the entry.
UniProt Q4DA54, 1-478: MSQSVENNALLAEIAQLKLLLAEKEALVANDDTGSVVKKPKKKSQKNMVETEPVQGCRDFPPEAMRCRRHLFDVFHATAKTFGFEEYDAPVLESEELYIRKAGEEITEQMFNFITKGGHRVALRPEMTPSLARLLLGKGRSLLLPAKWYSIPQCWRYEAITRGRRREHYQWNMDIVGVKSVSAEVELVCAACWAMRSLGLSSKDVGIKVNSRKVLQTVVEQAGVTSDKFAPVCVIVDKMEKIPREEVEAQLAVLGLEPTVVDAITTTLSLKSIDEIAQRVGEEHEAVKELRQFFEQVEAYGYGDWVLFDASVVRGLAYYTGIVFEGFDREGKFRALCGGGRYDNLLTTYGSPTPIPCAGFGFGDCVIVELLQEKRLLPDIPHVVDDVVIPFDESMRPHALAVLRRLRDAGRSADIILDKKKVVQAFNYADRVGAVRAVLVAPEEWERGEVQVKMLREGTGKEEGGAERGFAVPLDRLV
UniProt A4I591, 1-473: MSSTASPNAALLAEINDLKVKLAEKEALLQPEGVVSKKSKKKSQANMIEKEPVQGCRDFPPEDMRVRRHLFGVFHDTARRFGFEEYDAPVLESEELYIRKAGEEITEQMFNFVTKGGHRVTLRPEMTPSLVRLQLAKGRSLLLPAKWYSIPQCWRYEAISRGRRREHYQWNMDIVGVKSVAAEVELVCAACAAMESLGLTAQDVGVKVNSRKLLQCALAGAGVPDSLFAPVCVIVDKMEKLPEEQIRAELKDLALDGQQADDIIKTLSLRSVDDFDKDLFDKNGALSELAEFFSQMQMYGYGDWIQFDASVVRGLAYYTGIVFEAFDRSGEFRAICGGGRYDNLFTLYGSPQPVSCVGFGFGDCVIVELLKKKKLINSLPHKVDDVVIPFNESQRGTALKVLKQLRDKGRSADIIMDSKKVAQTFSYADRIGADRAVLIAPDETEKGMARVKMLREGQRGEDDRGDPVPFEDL
UniProt Q8IDJ8, 1-583: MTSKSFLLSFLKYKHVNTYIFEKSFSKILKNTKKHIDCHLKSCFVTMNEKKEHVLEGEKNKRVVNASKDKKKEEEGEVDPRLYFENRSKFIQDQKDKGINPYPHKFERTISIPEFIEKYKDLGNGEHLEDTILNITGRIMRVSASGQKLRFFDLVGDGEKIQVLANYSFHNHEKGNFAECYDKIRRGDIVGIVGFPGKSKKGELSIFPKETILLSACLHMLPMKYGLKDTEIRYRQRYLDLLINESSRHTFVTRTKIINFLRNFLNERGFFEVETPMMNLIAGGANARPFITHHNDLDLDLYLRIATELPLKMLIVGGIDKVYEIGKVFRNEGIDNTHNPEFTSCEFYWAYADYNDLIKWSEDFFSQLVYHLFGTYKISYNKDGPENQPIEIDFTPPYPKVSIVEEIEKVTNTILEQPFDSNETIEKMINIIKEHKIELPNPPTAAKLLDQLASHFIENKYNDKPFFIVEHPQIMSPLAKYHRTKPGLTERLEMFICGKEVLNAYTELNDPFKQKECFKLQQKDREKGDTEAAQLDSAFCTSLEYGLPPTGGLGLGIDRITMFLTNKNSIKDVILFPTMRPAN

The values are deposited in ChEMBL (CHEMBL3988442, “University of Dundee, Small-Polar-MMV Screening Library” (2021)).

Values are the deposited “Percent Effect”, in %.
The record does not define 0% and 100%; most values in the screen are far below 50% and negative numbers occur (in some assays of this library far below -100).
Compounds were drawn at random from those tested, without regard to their results.

TcHisRS: 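Histidine-tRNA ligase, Trypanosoma cruzi CL Brener (UniProt Q4DA54). Enzyme assay of histidyl-tRNA synthetase; the read-out is not stated. Tested at 30 µM. Direction is inferred from retests: higher values go with stronger inhibition. About 69,000 compounds were tested under these conditions; 0.045% (about 31) showed 50% or more at least once.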
LiHisRS: 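Enzyme assay of histidyl-tRNA synthetase; the read-out is not stated. Target: Histidine-tRNA ligase, Leishmania infantum (UniProt A4I591). Tested at 30 µM. The record gives no direction; compounds that gave an IC50 in retests scored well above the rest, so higher reads as stronger inhibition. The assay is labelled LdHisRS but filed under L. infantum. Of about 69,000 compounds tested this way, about 410 (0.6%) reached 50% or more in at least one test.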
PfKRS1: 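Enzyme assay of the cytosolic lysyl-tRNA synthetase in 384-well plates, read by luminescence. Target: Lysine-tRNA ligase, Plasmodium falciparum 3D7 (UniProt Q8IDJ8). Tested at 30 µM. Direction is inferred from only a few compounds that gave an IC50; most scored high, so higher reads as stronger inhibition. Size under these conditions: about 69,000 compounds, about 49 of them at 50% or above in at least one test.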

Compound | TcHisRS | LiHisRS | PfKRS1
CCCc1n[nH]c(C2CN(CCc3cccs3)CCO2)n1 (stereo unspecified) | 1.994 | 1.709 | -0.5493
Cc1ccc(Nc2c(C#N)c(=O)n(C)c(=O)n2C)cc1F | 0 | 14.75 | 7.842
CCOC1COC2(CCN(c3cccc(C)n3)CC2)C1 (stereo unspecified) | 2.222 | 9.434 | 2.655
Cc1cc(C2CCCN2Cc2ccn(C)c(=O)c2)no1 (stereo unspecified) | 3.817 | 10.64 | -3.071
CSCc1noc(CNC(=O)C2CCN(C(=O)C3CCCC3)CC2)n1 | 2.051 | 6.122 | 0.6279
CCCc1nnc2sc(-c3cc(C(C)C)n[nH]3)nn12 | 6 | -2.174 | -0.5724
COc1cc(C(C)=O)ccc1OCC(=O)c1cccn1C | 4.04 | 13.83 | -2.417
CCN(CCOc1ccc(F)cc1)C(=O)c1ccncc1Cl | 3.261 | 15.15 | 0.4354
CC(C)n1cnnc1CNC(=O)CCCOc1ccccc1Cl | 7.738 | 3.226 | 0.5611
NC(=O)NCCC(=O)N1CCC(c2cc(Cc3ccccc3)n[nH]2)CC1 | 12.12 | 18.03 | 5.439
c1csc(CN2Cc3nc(CN4CCCC4)oc3C2)c1 | 1.105 | 35.14 | 4.148
CNc1cc(C2CN(C(=O)c3ccccc3)CCO2)nc(C)n1 (stereo unspecified) | 3.101 | 9.929 | 0.6151
CCOCCN1CCN(CCCS(C)(=O)=O)CC1C (stereo unspecified) | 1.754 | 0 | 0.7645
O=C1COC2(CCN(Cc3ccccn3)CC2)CN1CC1CC1 | 5.435 | 4.854 | 1.022
CN(Cc1ccccc1O)C(=O)NC1CCCN(c2ncccn2)C1 (stereo unspecified) | 2.662 | 16.8 | -5.615
CC[C@H]1CN(C(=O)c2cccc(-n3cnnc3)n2)CC[C@@]1(C)O | 7.212 | 9.756 | -0.8387
NC(=O)C1CCN(C(=O)Cc2ccc(Cl)c(Cl)c2)CC1 | 9.091 | 17.14 | 2.543
O=C1CC(c2ccncc2)C2(CCN(C(=O)c3cccc(F)c3)CC2)N1 (stereo unspecified) | 4.926 | 14.71 | 0.8359
Cc1nc(CN(C)Cc2nc(-c3ccccc3)no2)co1 | 10.13 | 14.58 | -0.2613
Cc1cc(C)nc(N2CCC(C(=O)Nc3n[nH]c(C)n3)CC2)n1 | 7.772 | 14.61 | 2.925
CC(C)CN1CCC(NC(C)c2ccccc2-n2cccn2)CC1 (stereo unspecified) | -0.4808 | 9.756 | 4.847
COc1cccc(OC)c1C(=O)N1CC(=O)N(C2CCC2)CC(O)C1 (stereo unspecified) | -4.494 | 12.24 | 4.15
O=C(NC1CCCC1)[C@H]1C[C@H]2OCC[C@H]2N(Cc2ccoc2)C1 | 5.911 | 20.59 | -0.5341
CN(C)[C@@H]1CN(Cc2ccccc2O)C[C@H]1c1cn(C)c2ccccc12 | -5.747 | 10.07 | 0.7546
N#CCCn1nc(C(F)(F)F)c2c1CCCC2 | 0 | 16.49 | 2.555
CCc1cc(NCCc2ccc(O)cc2)n2nccc2n1 | 3.306 | 25 | 1.472
Cc1noc(C)c1CN1CCc2ncnc(-c3ccccc3)c2CC1 | -2.116 | 0.9091 | 1.751
Cc1ccccc1CCNC(=O)N1CCCC(c2nncn2C)C1 (stereo unspecified) | 0 | 15.09 | 1.067
CCCc1nn(Cc2csc(C(C)C)n2)c(=O)o1 | -1.149 | 5.128 | -1.443
Cc1cccc(C(=O)N2CCN(CCC(C)C)CC2)n1 | 3.077 | 10.2 | 0.6516
CC(=O)N1CCC(n2nccc2-c2cnc(N3CCCC3)nc2)CC1 | 5.65 | 8.571 | 3.771
CCS(=O)(=O)N1CCC2(CC(=O)N(c3cccc(C)c3)C2)C1 (stereo unspecified) | 1.622 | 20.75 | 7.594
CCOc1cc(C(=O)N2CCCC(c3cc(C(N)=O)[nH]n3)C2)ccn1 (stereo unspecified) | -0.7576 | 16.67 | 4.548
O=C1CCCC2(CCN(C(=O)c3ccccn3)CC2)N1 | 0 | 9.709 | 1.767
N#Cc1ccc(OC[C@]23COC[C@H]2CN(c2ncccn2)C3)nc1 | 5.714 | 5.556 | -0.3302
Cc1ccn(-c2ccccc2NCc2ccccn2)n1 | 0 | 3.846 | -0.9389
O=C(NC[C@H]1CC[C@H](c2ccnc3ncnn32)CC1)c1ccccn1 | 3.077 | 7.042 | 3.559
CSc1cc2c(cc1NC(=O)N(C)Cc1ccncc1)OCCO2 | 3.922 | 2.521 | 0.9201
c1ccc2c(c1)nc1n2[C@@H](CNCc2nccs2)COC1 | 2.488 | 25 | 8.26
CCCC(=O)N1CCCC(c2ccccn2)C1 (stereo unspecified) | 16.17 | 7.092 | -0.9001
COc1cc(CN(C)C(=O)Nc2cc(C)on2)ccc1SC | 0.5348 | 7.692 | 10.27
CN(Cc1noc(C2CC2)n1)C1CCN(Cc2ccc(F)c(F)c2)C1 (stereo unspecified) | 4.706 | 11.01 | 2.095
Cc1csc(CN2CC[C@H]3C[C@@H](c4nc(C)no4)O[C@@H]3C2)n1 | 2.632 | 17.74 | 4.167
CCCc1nnc(N2CCN(C3CCCC3)CC2)o1 | 6.667 | 13.33 | 2.695
CCOc1ccc(C(=O)NCCCNc2ncccn2)cc1 | 1.149 | -20.97 | 1.911
CCOc1ncnc2c1CCN(Cc1csc(C)n1)CC2 | 0 | -35.29 | -2.763
CCc1[nH]c2c(CNC(=O)C3CNC(=O)C3)cc(C)cc2c1C (stereo unspecified) | -5.797 | 15.83 | 6.709
O=C(c1ccc(-c2ccc(O)nc2)s1)N1CCCCC1 | 3.478 | 12.07 | 3.691

Some entries from above, unchanged:

Compound	TcHisRS	LiHisRS	PfKRS1
CN(Cc1ccccc1O)C(=O)NC1CCCN(c2ncccn2)C1 (stereo unspecified)	2.662	16.8	-5.615
CCOc1ncnc2c1CCN(Cc1csc(C)n1)CC2	0	-35.29	-2.763
O=C(NC[C@H]1CC[C@H](c2ccnc3ncnn32)CC1)c1ccccn1	3.077	7.042	3.559
CN(Cc1noc(C2CC2)n1)C1CCN(Cc2ccc(F)c(F)c2)C1 (stereo unspecified)	4.706	11.01	2.095
COc1cccc(OC)c1C(=O)N1CC(=O)N(C2CCC2)CC(O)C1 (stereo unspecified)	-4.494	12.24	4.15
CSc1cc2c(cc1NC(=O)N(C)Cc1ccncc1)OCCO2	3.922	2.521	0.9201